Results deposited as PubChem BioAssay AID720505 (Drosophila RNAi Screening Center, 2013).
The screen tested about 20,000 reagents; shown is a random part of those with a known target gene and a result. Over the whole deposit, about 2,100 (10%) are marked active. 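Raw plate signals without normalisation; calls rest on control-based scores that were not deposited; replicate 2 separates called from uncalled poorly.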 Reagents against one gene are numbered here. The record does not give: the amount of reagent, the time to read-out.

Assay: 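Knock-downs that reduce calcium influx once internal stores are emptied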 (primary screen)
Cell system: Drosophila S2R+ cells
Knock-down reagent: long dsRNA against Drosophila genes
Conditions: thapsigargin (2 µM) in calcium-free buffer to empty internal stores, then 2 mM calcium added back
Measurement: 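Fluo-4 signal in 384-well plates read on a FLIPR after thapsigargin (2 µM, calcium-free) store depletion and 2 mM calcium add-back; unnormalised mean endpoint per well; screen run twice, selected wells retested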
Scale: calcium signal: higher = more calcium entry after store depletion
Call rule: 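About 1500 genes called as lowering calcium entry, by varying amounts, judged against per-plate control wells with STIM1 as positive and Rho1 as negative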
Calls: active = called as lowering calcium entry; inactive = not called

What did the screen give for CG31600?
calcium signal, replicate 1: 74.3; calcium signal, replicate 2: 160; activity call: inactive

For nkt, what was measured?
calcium signal, replicate 1: 103; calcium signal, replicate 2: 100; activity call: inactive

For Obp44a, what was measured?
calcium signal, replicate 1: 151; calcium signal, replicate 2: 188; activity call: inactive

How did the screen score CG14984?
calcium signal, replicate 1: 90.6; calcium signal, replicate 2: 118; activity call: inactive

How did the screen score Idgf6?
calcium signal, replicate 1: 101; calcium signal, replicate 2: 131; activity call: inactive

What did the screen give for Slc25A46b?
calcium signal, replicate 1: 106; calcium signal, replicate 2: 103; activity call: inactive

What did the screen give for fh?
calcium signal, replicate 1: 65.8; calcium signal, replicate 2: 69.3; activity call: active

For Vha36-2, what was measured?
calcium signal, replicate 1: 96; calcium signal, replicate 2: 130; activity call: inactive

For CG8441, what does the deposit list?
calcium signal, replicate 1: 153; calcium signal, replicate 2: 144; activity call: inactive

Sorted by “calcium signal, replicate 1” (high to low): 3 of the entries above
Obp44a | calcium signal, replicate 1: 151; calcium signal, replicate 2: 188; activity call: inactive
Idgf6 | calcium signal, replicate 1: 101; calcium signal, replicate 2: 131; activity call: inactive
CG14984 | calcium signal, replicate 1: 90.6; calcium signal, replicate 2: 118; activity call: inactive

Additional results follow:
What is on record for CR33317?
calcium signal, replicate 1: 164; calcium signal, replicate 2: 113; activity call: inactive

What did the screen give for CG15027?
calcium signal, replicate 1: 96.3; calcium signal, replicate 2: 139; activity call: inactive

With mRpL28, what does the deposit list?
calcium signal, replicate 1: 154; calcium signal, replicate 2: 84; activity call: inactive

Which result is listed for Sesn #1?
calcium signal, replicate 1: 179; calcium signal, replicate 2: 74.3; activity call: inactive

With Sesn #2, what was measured?
calcium signal, replicate 1: 133; calcium signal, replicate 2: 142; activity call: inactive

With Sesn #3, what does the deposit list?
calcium signal, replicate 1: 155; calcium signal, replicate 2: 206; activity call: inactive

Which result is listed for CG32533 #1?
calcium signal, replicate 1: 197; calcium signal, replicate 2: 143; activity call: inactive

For CG32533 #2, what does the deposit list?
calcium signal, replicate 1: 191; calcium signal, replicate 2: 115; activity call: inactive

With CG7448 (retired record) #1, what was measured?
calcium signal, replicate 1: 98; calcium signal, replicate 2: 131; activity call: inactive

With CG7448 (retired record) #2, what does the deposit list?
calcium signal, replicate 1: 122; calcium signal, replicate 2: 186; activity call: inactive
